Experiment [1] concerns the target T1, histidine-tagged WT IGFBP7 (Ad-WT IGFBP7-6xHis) (human) (UniProt Q16270).
T1 sequence: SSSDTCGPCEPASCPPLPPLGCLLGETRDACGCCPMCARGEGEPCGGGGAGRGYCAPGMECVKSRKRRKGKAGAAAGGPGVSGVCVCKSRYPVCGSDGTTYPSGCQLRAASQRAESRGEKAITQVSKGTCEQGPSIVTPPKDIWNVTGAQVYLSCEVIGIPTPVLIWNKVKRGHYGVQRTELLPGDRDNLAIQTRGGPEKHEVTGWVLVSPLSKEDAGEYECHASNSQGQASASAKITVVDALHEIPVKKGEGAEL
Description: co-IP; AC16 cells infected with 6xHis-tagged IGFBP7 adenovirus (WT or deletion forms) for 48 hours, lysed in pulldown buffer; His-tagged IGFBP7 held on Dynabeads (His-Tag Isolation & Pulldown; 'anti-6xHis Dynabeads'), eluted with His-Elution Buffer, immunoblot. (A western blot detects proteins with antibodies after separation by electrophoresis.)

Chains of the proteins cited; added tags and fusions are not shown. Residues count along the entry.
UniProt P06213, residues 28-1382: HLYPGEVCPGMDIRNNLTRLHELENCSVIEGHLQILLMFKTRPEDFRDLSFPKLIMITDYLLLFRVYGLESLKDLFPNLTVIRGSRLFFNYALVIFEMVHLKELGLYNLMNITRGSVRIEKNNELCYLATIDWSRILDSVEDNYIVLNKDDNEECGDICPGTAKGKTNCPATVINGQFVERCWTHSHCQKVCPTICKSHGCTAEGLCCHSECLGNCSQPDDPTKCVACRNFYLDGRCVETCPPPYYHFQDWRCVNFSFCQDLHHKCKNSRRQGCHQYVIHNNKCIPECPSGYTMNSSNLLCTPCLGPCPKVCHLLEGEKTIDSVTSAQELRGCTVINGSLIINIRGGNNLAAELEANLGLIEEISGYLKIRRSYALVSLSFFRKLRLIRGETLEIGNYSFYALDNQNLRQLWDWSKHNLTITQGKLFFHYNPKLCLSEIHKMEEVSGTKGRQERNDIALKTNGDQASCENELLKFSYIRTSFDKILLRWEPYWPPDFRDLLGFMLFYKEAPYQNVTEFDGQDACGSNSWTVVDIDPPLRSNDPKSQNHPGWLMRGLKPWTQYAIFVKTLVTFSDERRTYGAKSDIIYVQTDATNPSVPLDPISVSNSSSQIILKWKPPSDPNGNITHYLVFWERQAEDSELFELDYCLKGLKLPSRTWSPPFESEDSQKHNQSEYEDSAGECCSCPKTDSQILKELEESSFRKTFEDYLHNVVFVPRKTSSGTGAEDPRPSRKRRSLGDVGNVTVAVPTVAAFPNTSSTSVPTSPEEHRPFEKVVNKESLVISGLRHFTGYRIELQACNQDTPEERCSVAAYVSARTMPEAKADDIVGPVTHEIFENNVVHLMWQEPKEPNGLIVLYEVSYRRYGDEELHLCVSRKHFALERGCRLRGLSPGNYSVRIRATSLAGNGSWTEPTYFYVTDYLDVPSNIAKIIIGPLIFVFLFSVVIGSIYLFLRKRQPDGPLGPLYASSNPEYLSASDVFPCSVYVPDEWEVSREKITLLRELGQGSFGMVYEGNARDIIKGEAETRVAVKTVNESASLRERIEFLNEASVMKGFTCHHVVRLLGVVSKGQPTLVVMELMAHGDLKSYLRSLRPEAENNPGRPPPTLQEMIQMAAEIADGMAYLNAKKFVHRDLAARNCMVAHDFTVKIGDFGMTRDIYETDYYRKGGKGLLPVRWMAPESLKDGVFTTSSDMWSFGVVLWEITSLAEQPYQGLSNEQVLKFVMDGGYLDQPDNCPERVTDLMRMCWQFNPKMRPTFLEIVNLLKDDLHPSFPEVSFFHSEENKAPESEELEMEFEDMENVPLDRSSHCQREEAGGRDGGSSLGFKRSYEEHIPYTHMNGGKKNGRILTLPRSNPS
UniProt P35568: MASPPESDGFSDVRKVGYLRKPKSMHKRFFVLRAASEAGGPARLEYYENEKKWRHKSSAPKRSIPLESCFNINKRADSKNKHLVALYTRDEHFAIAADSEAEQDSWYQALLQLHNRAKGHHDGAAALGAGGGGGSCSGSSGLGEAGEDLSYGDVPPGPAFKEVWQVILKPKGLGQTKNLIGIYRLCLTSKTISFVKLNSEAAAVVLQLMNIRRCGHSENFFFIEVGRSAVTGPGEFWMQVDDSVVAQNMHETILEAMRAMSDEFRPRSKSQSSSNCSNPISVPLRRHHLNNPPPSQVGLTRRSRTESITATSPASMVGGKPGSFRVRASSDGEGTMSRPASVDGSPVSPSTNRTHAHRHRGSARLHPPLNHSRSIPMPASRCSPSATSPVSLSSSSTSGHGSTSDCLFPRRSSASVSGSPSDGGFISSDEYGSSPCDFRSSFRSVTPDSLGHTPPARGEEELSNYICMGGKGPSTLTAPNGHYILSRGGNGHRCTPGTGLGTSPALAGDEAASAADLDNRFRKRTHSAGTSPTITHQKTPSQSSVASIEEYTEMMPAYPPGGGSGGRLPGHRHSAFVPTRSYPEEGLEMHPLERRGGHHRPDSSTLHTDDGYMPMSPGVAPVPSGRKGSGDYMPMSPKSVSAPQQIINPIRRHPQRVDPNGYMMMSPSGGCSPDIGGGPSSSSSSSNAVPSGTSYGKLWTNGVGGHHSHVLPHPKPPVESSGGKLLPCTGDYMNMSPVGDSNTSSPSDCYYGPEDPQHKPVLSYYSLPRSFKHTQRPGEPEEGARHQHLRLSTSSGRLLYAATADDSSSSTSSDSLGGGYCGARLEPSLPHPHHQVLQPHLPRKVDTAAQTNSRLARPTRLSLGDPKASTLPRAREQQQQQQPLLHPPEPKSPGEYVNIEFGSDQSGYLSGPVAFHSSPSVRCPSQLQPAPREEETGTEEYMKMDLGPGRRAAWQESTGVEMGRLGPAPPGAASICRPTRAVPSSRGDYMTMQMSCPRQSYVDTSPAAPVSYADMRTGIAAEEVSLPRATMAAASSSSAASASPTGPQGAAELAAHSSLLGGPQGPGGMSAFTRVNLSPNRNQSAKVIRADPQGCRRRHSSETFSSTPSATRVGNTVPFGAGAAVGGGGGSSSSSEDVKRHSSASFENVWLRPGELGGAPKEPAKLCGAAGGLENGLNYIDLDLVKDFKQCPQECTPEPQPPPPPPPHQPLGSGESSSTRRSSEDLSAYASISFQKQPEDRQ

Experiment [2] deals with insulin receptor (IR) (human (endogenous in AC16)) (UniProt P06213). Description: co-IP; reverse IP: IR precipitated from lysate of Ad-hIGFBP-6xHis-infected AC16 cells with INSR mAb (18-44) and Dynabeads Protein G, immunoblot.

No constants are given. Whether binding was seen depends on the method and setting. Binding seen in cells or lysates may run through a third protein. Some binding calls cover weakened binding; strength is not graded here. Tags and fused reporters may be left off the sequences shown.

With “insulin receptor (IR) (from UniProt P06213 28-1382)”, in experiment [1], the binding result is recorded as “binds”.
Still for that read-out and setting: the result for “insulin receptor substrate IRS1 (from UniProt P35568 1-1242)” reads “binds”.

B1: histidine-tagged WT IGFBP7 (Ad-WT IGFBP7-6xHis) (protein, UniProt Q16270-1 27-282)
chain: T1 sequence
For B1, the binding entry in experiment [2] is reported as “binds”.

B2: insulin receptor substrate IRS2 (protein, UniProt Q9Y4H2 1-1338)
chain: MASPPRHGPPGPASGDGPNLNNNNNNNNHSVRKCGYLRKQKHGHKRFFVLRGPGAGGDEATAGGGSAPQPPRLEYYESEKKWRSKAGAPKRVIALDCCLNINKRADAKHKYLIALYTKDEYFAVAAENEQEQEGWYRALTDLVSEGRAAAGDAPPAAAPAASCSASLPGALGGSAGAAGAEDSYGLVAPATAAYREVWQVNLKPKGLGQSKNLTGVYRLCLSARTIGFVKLNCEQPSVTLQLMNIRRCGHSDSFFFIEVGRSAVTGPGELWMQADDSVVAQNIHETILEAMKALKELFEFRPRSKSQSSGSSATHPISVPGARRHHHLVNLPPSQTGLVRRSRTDSLAATPPAAKCSSCRVRTASEGDGGAAAGAAAAGARPVSVAGSPLSPGPVRAPLSRSHTLSGGCGGRGSKVALLPAGGALQHSRSMSMPVAHSPPAATSPGSLSSSSGHGSGSYPPPPGPHPPLPHPLHHGPGQRPSSGSASASGSPSDPGFMSLDEYGSSPGDLRAFCSHRSNTPESIAETPPARDGGGGGEFYGYMTMDRPLSHCGRSYRRVSGDAAQDLDRGLRKRTYSLTTPARQRPVPQPSSASLDEYTLMRATFSGSAGRLCPSCPASSPKVAYHPYPEDYGDIEIGSHRSSSSNLGADDGYMPMTPGAALAGSGSGSCRSDDYMPMSPASVSAPKQILQPRAAAAAAAAVPSAGPAGPAPTSAAGRTFPASGGGYKASSPAESSPEDSGYMRMWCGSKLSMEHADGKLLPNGDYLNVSPSDAVTTGTPPDFFSAALHPGGEPLRGVPGCCYSSLPRSYKAPYTCGGDSDQYVLMSSPVGRILEEERLEPQATPGPSQAASAFGAGPTQPPHPVVPSPVRPSGGRPEGFLGQRGRAVRPTRLSLEGLPSLPSMHEYPLPPEPKSPGEYINIDFGEPGARLSPPAPPLLASAASSSSLLSASSPASSLGSGTPGTSSDSRQRSPLSDYMNLDFSSPKSPKPGAPSGHPVGSLDGLLSPEASSPYPPLPPRPSASPSSSLQPPPPPPAPGELYRLPPASAVATAQGPGAASSLSSDTGDNGDYTEMAFGVAATPPQPIAAPPKPEAARVASPTSGVKRLSLMEQVSGVEAFLQASQPPDPHRGAKVIRADPQGGRRRHSSETFSSTTTVTPVSPSFAHNPKRHNSASVENVSLRKSSEGGVGVGPGGGDEPPTSPRQLQPAPPLAPQGRPWTPGQPGGLVGCPGSGGSPMRRETSAGFQNGLNYIAIDVREEPGLPPQPQPPPPPLPQPGDKSSWGRTRSLGGLISAVGVGSTGGGCGGPGPGALPPANTYASIDFLSHHLKEATIVKE
B2: in experiment [1], the binding entry is listed as “binds”.

Source of the values: paper PMC11358005.
